Test results from publication PMC4792966.
No constants are given. Whether binding was seen depends on the method and setting. In cells and extracts the contact can be indirect. Binding calls can cover weak binding; strength is not graded here.

Biological target: T1, Toll-like receptor 9 (mouse (endogenous in peritoneal B cells)) (UniProt Q9EQU3)
T1 sequence: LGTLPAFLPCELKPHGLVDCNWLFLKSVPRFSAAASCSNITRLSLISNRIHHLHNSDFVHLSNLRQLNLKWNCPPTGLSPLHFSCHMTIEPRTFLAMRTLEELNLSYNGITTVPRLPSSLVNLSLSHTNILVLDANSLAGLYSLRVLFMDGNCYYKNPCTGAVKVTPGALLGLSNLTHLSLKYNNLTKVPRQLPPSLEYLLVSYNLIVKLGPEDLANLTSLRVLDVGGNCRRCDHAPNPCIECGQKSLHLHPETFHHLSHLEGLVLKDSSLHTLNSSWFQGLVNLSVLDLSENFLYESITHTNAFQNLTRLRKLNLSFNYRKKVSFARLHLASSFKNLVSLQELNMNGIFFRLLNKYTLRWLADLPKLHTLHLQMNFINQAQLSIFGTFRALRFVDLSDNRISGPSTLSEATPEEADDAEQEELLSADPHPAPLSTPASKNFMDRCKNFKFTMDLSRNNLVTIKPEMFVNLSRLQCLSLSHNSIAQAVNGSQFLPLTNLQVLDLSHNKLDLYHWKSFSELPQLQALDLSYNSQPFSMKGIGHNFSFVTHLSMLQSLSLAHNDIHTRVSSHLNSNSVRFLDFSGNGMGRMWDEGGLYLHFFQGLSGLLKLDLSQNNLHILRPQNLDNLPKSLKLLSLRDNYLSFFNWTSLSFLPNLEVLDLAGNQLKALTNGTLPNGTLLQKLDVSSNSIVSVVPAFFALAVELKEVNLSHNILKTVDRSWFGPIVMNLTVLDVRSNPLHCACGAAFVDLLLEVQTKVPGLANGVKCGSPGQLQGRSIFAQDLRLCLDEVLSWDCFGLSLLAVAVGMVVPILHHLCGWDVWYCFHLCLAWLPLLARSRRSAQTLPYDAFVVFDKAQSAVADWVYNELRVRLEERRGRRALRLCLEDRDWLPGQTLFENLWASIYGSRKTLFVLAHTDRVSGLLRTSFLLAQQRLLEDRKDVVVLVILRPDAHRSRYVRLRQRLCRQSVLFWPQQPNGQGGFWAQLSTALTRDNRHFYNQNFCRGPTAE
Assay: proximity ligation; Duolink In Situ Red Starter Kit Mouse/Rabbit; peritoneal B cells on poly-L-lysine coated coverslips, unstimulated or stimulated with CpG (10 min, 2 h), fixed and permeabilised; primary antibodies anti-TLR9, anti-αv and anti-LC3; positive foci per cell counted

For “integrin αv (mouse (endogenous in peritoneal B cells)) (receptor)”, which binding is on record?
The binding was “binds”.
